The source of these data is PubChem BioAssay AID1347423 (Functional Genomics Laboratory (NCATS/FGL), 2020).

The whole screen tested about 52,000 sequences, of which about 210 (0.4%) were called active.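 Rule for the calls: active = gene whose silencing raises cell survival under the drug, median off-target-corrected z-score across its silencing RNAs 2 or more; inactive = the rest.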 The list shows a part of the results.

The test can be described thus: Resistance to Poly (ADP-Ribose) Polymerase inhibitor: Gene Identification via Genome-wide siRNA Screen. The following applies: mouse BRCA2 R2336H ES cells, olaparib, CellTiter-Glo viability; active compounds read high. The method in brief:
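Genome-wide siRNA screen (3 siRNAs/gene, 20 nM) in mouse ES cells carrying hypomorphic BRCA2 R2336H; olaparib 500 nM added 48 h post-transfection, CellTiter-Glo viability 72 h later. Normalized to plate-median negative control; MAD z-scores, gene median, seed-adjusted.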
(Cellular ATP, detected with luciferase, serves as a proxy for viable cell number.)
On to GCCUUUUGAGUAUAACGAATT against Zfp248, for which the z-score is inactive: -0.172.

Take GCAAUCGAGCUGAAACUAGTT against Hat1: the z-score was inactive: -0.864. Regarding “GGAACAGUAUAUAAGUUCATT against 1700129L13Rik”, the z-score was inactive: -1.12. Next, GCUGAUCCUUAACUUAAAGTT against Adam1b: inactive: -0.899; “CGAACCAUUUCGUAAAGUUTT against 6330415M09Rik”: inactive: -0.187; CCCAGAACACCGUAUACUUTT against Itga3: inactive: -1.2.

On to GGAAGCCAAAGAAAAGUUCTT against Ski, for which the z-score was inactive: 0.403. The figure for GGAGAGCACAAAGAACAUUTT against Med6 is inactive: 0.125; for “GGAUUUCAUCAGUGUUCUUTT against 2810430M08Rik” it is inactive: -0.982. The figure for GGACUAUGGGUGCACCAAUTT against Wbscr5 is inactive: -0.656; for GCUGUUUGACUACAUAAUCTT against Melk it is inactive: 0.0434; for GGAUUUAUGUGGACAACGCTT against Dnahc8 it is inactive: 1.35. Next, GGGCAUCUUCUGCUACUUCTT against Slc24a6: inactive: 0.46; “CCGAAGGACAGUGUUUAUUTT against 2600014M03Rik”: inactive: 0.742. Take GGAGAUAUGUUCAUUGUUCTT against Rasa1: the z-score is inactive: -0.188. Next, GGCUAUGAAGAAAACAUGUTT against Gpx7: inactive: 0.412. Next, GGUAUAUAGGGCUGUGGCUTT against Pigs: inactive: 1.45; CCAGACUAUUUAACUUGAGTT against Adrb2: inactive: 1.18; GGAUUGCCGAAACUGUACATT against Ucp1: inactive: -1.48. The figure for “CCUAUAGCAGUGGUUUUCATT against 1810009K13Rik” is inactive: -0.451; for CCAGUCCGAUGUUUGUUAUTT against Cnbp2 it is inactive: -0.496; for CGUAGGCACCUAUGGUAUATT against H2-Aa it is inactive: -0.84. Take “GGCCAAGGAAAUAUCAAUGTT against 5430428G01Rik”: the z-score is inactive: -0.285.

For “GGCCCAUAUCUGCUCUCAUTT against A430110N23”, the z-score was inactive: 0.339. Next, GCAUGCAUCGAUUGUGCGCTT against Scml4: inactive: -0.575; GCUACCUCAACAUGGAUGCTT against Pcca: inactive: 1.24; GGCAGCUUUACGAUGUACATT against Lcn2: inactive: -0.897. Consider “GCUUCCUGUGUCUAUUUAUTT against 5230400J09Rik”, for which the z-score was inactive: 0.263. Next, GCGGCAAGUGGACUUUUCATT against Dlc1: inactive: -0.441.
